Source: PubChem BioAssay AID2685 (National Center for Advancing Translational Sciences (NCATS), 2010)
The whole screen tested about 320,000 compounds, of which about 2,100 (0.66%) were called active. Inconclusive means that the source gave no clear call. Such entries were picked first, then a sample of the others. The call rests on the fitted dose curve; in most records, active means well fitted inhibition curve with a large enough effect in the signal ratio, with a control signal flat (not every such curve was filed as active); inconclusive means small, poorly fitted or top-dose-only effect, or effect the other way, or a change in a side signal; inactive means flat fitted curve, though single readings scatter; the % refers to the signal ratio. A potency beside an inconclusive call is a rough fit, not a confirmed value.

test: qHTS Assay for Lipid Storage Modulators in Drosophila S3 Cells; settings: BODIPY lipid droplet fluorescence, 18-24 h, cells fed with added oleic acid; lipid storage change, negative = inhibition: at 46.1 µM (top of the series) unless noted
Method in brief: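 Laser-scanning cytometry quantifies lipid droplet accumulation (500–530 nm total intensity; droplet/cell object ratio) in oleic acid-fed (400 uM added) Drosophila S3 cells treated with a concentration series. 20 uM Triacsin C defined 100% inhibition.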
On the % scale 0 is the no-effect control and ±100 the full control effect; potency means the concentration at half of the fitted maximal effect.

Row | Compound | Potency | lipid storage change, negative = inhibition
1 | CC(CNC(=O)CN1C(=O)C(=O)N(C2CCCC2)C1=O)c1ccccc1 (stereo not drawn) | inconclusive: 2.59 µM [activator, full curve] | 
2 | Cc1ccccc1CSc1nnc(C)n1N |  | inconclusive: -59.9%
3 | COc1ccc(NCc2cc(=O)oc3cc(NC(C)=O)ccc23)cc1 |  | inconclusive: 9.27%
4 | O=C(NCCCN1CCOCC1)C1CC(=O)N(CCc2ccccc2)C1 (stereo not drawn) |  | inconclusive: -34.9%
5 | O=C(Nc1cc(Cl)ccc1N1CCOCC1)c1ccc(N2CCCC2=O)cc1 |  | inconclusive
6 | Cc1cccc2sc(N(CCCN(C)C)C(=O)c3ccc(C(=O)c4ccccc4)cc3)nc12 | inconclusive: 0.366 µM [activator, full curve, poor fit] | 
7 | O=C(O)c1ccccc1OCC1CCCO1 (stereo not drawn) | inconclusive: 29.1 µM [falling, single point] | 
8 | CN(C)S(=O)(=O)Oc1ccsc1C(=O)Nc1cccc(Cl)c1 |  | inconclusive: 9.93%
9 | CCCC1(c2ccccc2)NC(=O)N(CC(=O)c2[nH]c(C)c(C(=O)OCC)c2C)C1=O (stereo not drawn) | active: 8.2 µM | 
10 | CC(C)=CCCC(C)CN1CCC(n2nccc2NC(=O)c2cccnc2)CC1 (stereo not drawn) |  | inconclusive: 27.1%
11 | O=C(NCN1CCN(c2ccccn2)CC1)c1cnccn1 |  | inconclusive: -30.8%
12 | CCCOc1ccc(C(=O)NNC(=S)NC(=O)c2cccs2)cc1 |  | inconclusive: -57%
13 | CCCn1c(SCC(=O)Nc2cccc(Cl)c2Cl)n[nH]c1=O |  | inconclusive: -6.13%
14 | CCCCOc1ccc(N=Cc2ccc[nH]2)cc1 |  | inconclusive: -50.5%
15 | COc1ccc2c(c1)C(=NNc1ccc(C(=O)O)cc1)c1cc(OC)ccc1-2 |  | inconclusive: 29.3%
16 | COc1cc(/C=C(\NC(=O)c2ccccc2)C(=O)N2CC3CC(C2)c2cccc(=O)n2C3)cc(OC)c1OC (stereo not drawn) |  | inconclusive: -6.5%
17 | CCOc1ncccc1C(=O)OC(C)C(=O)NC1CCCCC1 (stereo not drawn) |  | inconclusive
18 | S=c1nc(-c2ccccc2)n(Cc2ccco2)c2c1CCCC2 | inconclusive: 13 µM [activator, partial curve] | 
19 | COc1ccc(S(=O)(=O)N(C)CC(=O)N2CCOCC2)cc1 |  | inconclusive: -29.1%
20 | CC1(C)Cc2c(cnn2-c2ccccc2)C(NC(=O)CCN2CCCCO2)C1 (stereo not drawn) |  | inconclusive: -100%
21 | O=C1c2ccccc2-c2nc3ncnn3c(-c3ccccc3Cl)c21 |  | inconclusive: 62%
22 | CCn1c(=O)c2ccccc2n2c(SCC(=O)N3CCc4ccccc4C3)nnc12 |  | inconclusive: 40.8%
23 | N#Cc1c(N)n(-c2ccc(O)cc2)c2nc3ccccc3nc12 |  | inconclusive: 37.2%
24 | O=c1c2c(nc3nc(Cc4ccccc4)[nH]n13)CCC2 |  | inconclusive: -32.1%
25 | O=C(O)c1ccccc1Nc1ccc(OC(F)F)cc1 |  | inconclusive: 42.4%
26 | Cc1occc1C(=O)Nc1sccc1C(N)=O |  | inconclusive: -32%

Row | Compound | Potency | lipid storage change, negative = inhibition
27 | OC1c2cc(Br)ccc2N=C2CCCN21 (stereo not drawn) |  | inconclusive: 449%
28 | CN1CCCN(C(=O)CC(c2ccccc2)c2ccccc2)CC1 |  | inconclusive: 6.03% [at 9.22 µM]
29 | O=C(c1ccc(-c2ccc(Cl)cc2)o1)N1CCN(S(=O)(=O)c2cccs2)CC1 | inconclusive: 1.3 µM [falling, full curve, poor fit] | 
30 | COC(=O)CC/C(O)=C1/C(=N)CC(C)(C)CC1=O |  | inconclusive: -147%
31 | CCOC(=O)C1CCN(Cc2nc3ccc([N+](=O)[O-])cc3c(=O)n2-c2ccc(OC)cc2OC)CC1 |  | inconclusive: 14.8%
32 | Cc1cc(Cl)c2oc(C(=O)NCCC3CCCCO3)c(C)c2c1 (stereo not drawn) |  | inconclusive: -14.1%
33 | CN(C)c1ccc(CNC(=O)CCNS(=O)(=O)c2cc(Br)cnc2N)cc1 |  | inconclusive: 28.7%
34 | COc1ccc(C(=O)c2ccc(OC)cc2O)c(O)c1 |  | inconclusive: -31.5%
35 | O=C(CN1CCC(NC(=O)c2cccc(F)c2)CC1)Nc1ccc(Br)cc1 |  | inconclusive: -17.2%
36 | CCn1c(SCC(=O)N/N=C/C=C\c2ccco2)nc2ccccc21 | inconclusive: 29.1 µM [falling, single point] | 
37 | CC1CC1C(=O)Nc1nc2ccc(S(C)(=O)=O)cc2s1 (stereo not drawn) | inconclusive: 0.103 µM [activator, full curve] | 
38 | CCN(CC)S(=O)(=O)c1ccc(C(=O)NCc2ccc3[nH]c4c(c3c2)CCCC4)cc1 |  | inconclusive: 6.67%
39 | CCN1CCN(CCC(=O)Nc2ccccc2)CC1 | inconclusive: 0.184 µM [activator, full curve, poor fit] | 
40 | Cc1ccc2c(c1)C1CN(C)CCC1N2S(=O)(=O)c1cc(C(F)(F)F)ccc1Cl (stereo not drawn) |  | inconclusive: 19.7%
41 | CN1CCN(Cc2cccc(Oc3ccccc3)c2)CC1 | inconclusive: 29.1 µM [falling, single point] | 
42 | C=CCSC1=C(C#N)C(c2ccccc2OCC)C(C#N)C(=O)N1 (stereo not drawn) |  | inconclusive: 4.35%
43 | CCN1CCN(C(=O)CCc2nnc(CCc3c[nH]c4ccccc34)o2)[C@@H](C)C1=O |  | inconclusive: -49.6%
44 | O=C(c1ccccc1)c1cccn1CC(=O)N1CCCCCC1 |  | inactive: 2.14%
45 | COc1cc(C(=O)OC(C)CN2CCCC2)cc(OC)c1OC (stereo not drawn) |  | inconclusive: -43.6%
46 | O=C1c2cccnc2C(=O)N1Cc1ccc2c(c1)OCO2 |  | inconclusive: 7.69%
47 | COc1ccc(CC(=O)N(C)Cc2ccc(C(C)(C)C)cc2)cc1S(=O)(=O)N1CCOCC1 | inconclusive: 18.4 µM [activator, single point] | 
48 | COc1ccccc1/C=C(/C(=O)OCC(=O)Nc1cc(C)ccc1C)c1ccccc1 | inconclusive: 29.1 µM [falling, partial curve, poor fit] | 
49 | Cc1ccc(N2CCN(S(=O)(=O)c3ccc4c(c3)NC(=O)C(C)C(=O)N4)CC2C)cc1 (stereo not drawn) |  | inconclusive: -48.1%
50 | CC(C)c1ccc(C2CC(c3ccc(Br)cc3)=NN2C(N)=S)cc1 (stereo not drawn) |  | inconclusive: -1.25%
51 | O=C(NC1CCCCC1)[C@H](O)[C@@H](O)C(=O)NC1CCCCC1 |  | inconclusive: -42.4%
52 | O=C(Nc1cccc(Cl)c1)c1ccc(NC2=NC3CS(=O)(=O)CC3S2)cc1 (stereo not drawn) |  | inconclusive: -23.1%

Among those listed so far, these have two or more sulfur atoms:
Row | Compound | Potency | lipid storage change, negative = inhibition
8 | CN(C)S(=O)(=O)Oc1ccsc1C(=O)Nc1cccc(Cl)c1 |  | inconclusive: 9.93%
12 | CCCOc1ccc(C(=O)NNC(=S)NC(=O)c2cccs2)cc1 |  | inconclusive: -57%
29 | O=C(c1ccc(-c2ccc(Cl)cc2)o1)N1CCN(S(=O)(=O)c2cccs2)CC1 | inconclusive: 1.3 µM [falling, full curve, poor fit] | 
37 | CC1CC1C(=O)Nc1nc2ccc(S(C)(=O)=O)cc2s1 (stereo not drawn) | inconclusive: 0.103 µM [activator, full curve] | 
52 | O=C(Nc1cccc(Cl)c1)c1ccc(NC2=NC3CS(=O)(=O)CC3S2)cc1 (stereo not drawn) |  | inconclusive: -23.1%

(more compounds)

Row | Compound | Potency | lipid storage change, negative = inhibition
53 | COc1ccccc1CNC(=O)CNC(=O)N1CC(=O)Nc2ccccc21 | inconclusive: 23.1 µM [falling, single point] | 
54 | CC(=O)NC(CC(=O)OC(C)C(=O)Nc1ncc(Cl)cc1Cl)c1ccccc1 (stereo not drawn) |  | inactive: 6.11%
55 | COc1cc(NC(=O)CN2C(=O)NC(C)(CC(C)C)C2=O)cc(OC)c1 (stereo not drawn) |  | inconclusive: 53.2%
56 | Cc1nc2nc(SCC(=O)N3CCOCC3)nn2c(C)c1Cc1ccccc1 |  | inconclusive: 15%
57 | Cc1ccc(NS(=O)(=O)c2c(C)[nH]c(C)c2C(=O)N2CCCCC2)cc1C | inconclusive: 6.51 µM [falling, full curve, poor fit] | 
58 | Cc1ccc(S(=O)(=O)Nc2cccc3cccnc23)cc1 | inconclusive: 20.6 µM [falling, single point] | 
59 | CC(C)(C)Cc1nnc(NS(=O)(=O)c2ccc([N+](=O)[O-])cc2)s1 | inconclusive: 0.0517 µM [activator, full curve] | 
60 | CC1(C)CC(=O)/C(=C(\O)CCCN2C(=O)c3ccccc3C2=O)C(=NCCO)C1 |  | inconclusive: 21.1% [at 9.22 µM]
61 | CN(c1cccc(NC(=O)CN(c2ccc(Cl)c(Cl)c2)S(=O)(=O)c2ccccc2)c1)S(C)(=O)=O |  | inconclusive: -25.9%
62 | CN(Cc1ncc[nH]1)C(=O)CC1C(=O)NCCN1Cc1c(F)cccc1Cl (stereo not drawn) |  | inconclusive: -11.4%
63 | Cn1c(=O)c2[nH]c(N3CCN(c4ccccn4)CC3)nc2n(C)c1=O |  | inconclusive: 11.3%
64 | Cc1ccccc1Nc1nc(-c2sc(NC(=O)c3ccc([N+](=O)[O-])cc3)nc2C)cs1 |  | inconclusive: -15.1%
65 | O=C(NCC1CCCO1)c1ccc(Br)c(S(=O)(=O)N2CCOCC2)c1 (stereo not drawn) |  | inconclusive: -0.739%
66 | CN(Cc1ccccc1)C(=O)COC(=O)c1cc(Cl)nc(Cl)c1 | inconclusive: 0.731 µM [falling, single point] | 
67 | CC1(c2ccc(OC(F)F)cc2)NC(=O)N(CC(=O)N2c3ccccc3NC(=O)C2(C)C)C1=O (stereo not drawn) |  | inconclusive: 33.1%
68 | COc1ccc(-c2nnc(SCc3cccc(C#N)c3)o2)cc1 | inconclusive: 23.1 µM [activator, single point] | 
69 | COc1ccc(NC(=O)CN(C)CC(=O)NCCc2ccc(F)cc2)cc1 |  | inconclusive
70 | CCOc1ccc(C(=O)NCC(=O)NCC(c2ccc(OC)cc2)N2CCOCC2)cc1OCC (stereo not drawn) |  | inconclusive
71 | CCOC(=O)CCCNC(=O)COC(=O)/C=C/c1ccc2c(c1)OCO2 |  | inconclusive: 6.31%
72 | CCC(=O)Nc1ccc(S(=O)(=O)Nc2cc(C)on2)cc1 | inconclusive: 29.1 µM [cytotoxic, single point] | 
73 | CCOc1ccc(S(=O)(=O)N2CCCC(C(=O)N3CCC(C(N)=O)CC3)C2)cc1Cl (stereo not drawn) |  | inconclusive: 11.4%
74 | CN(CC(=O)Nc1ccc(F)c(F)c1F)C(=O)C1=COCCO1 |  | inconclusive: 59%
75 | CN(CC(=O)Nc1ccc(Cl)cc1)C(=O)c1ccc(N2CCCC2=O)cc1 |  | inconclusive: 7.51%
76 | Cc1cc(C)cc(NC(=O)CSc2nc3ccccc3nc2N2CCCCC2)c1 |  | inactive: 25%
77 | c1ccc(-c2nc3nonc3nc2-c2ccccc2)cc1 | inconclusive: 0.411 µM [falling, full curve, poor fit] | 
78 | C=CCNCC(=O)Nc1sc2c(c1C(=O)Nc1ccc(OC)cc1OC)CCC2 | inconclusive: 20.6 µM [activator, partial curve] | 
